Source: PubChem BioAssay AID1296009 (NCATS, 2018).

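Merkel cell carcinoma cell lines (MCC-26, WaGa, MKL-1, MKL-2) were scored for viability by CellTiter-Glo luminescence after 72 hours of compound exposure. Dose-response series of 8 or 11 points, topping out at 44.8 µM. The number is a fitted potency (AC50, nM) for loss of viability; a lower value means a more potent compound. Calls follow curve shape: inconclusive marks small, poorly fitted or top-dose-only inhibition, while active requires a well-fitted curve with a large effect.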

Values are in nM. Every entry below has the call inconclusive. These entries are mostly ones the record files as inconclusive; other results of the assay are not listed here. Potencies fitted to partial, single-point or poorly fitting curves are rough. Some entries filed as inconclusive have a full curve. An entry listed twice with the same setting is a separate test.

compound | tested on / at | fitted potency (nM) | curve
CCN(CCCc1ccccc1)CCCc1ccccc1 | MKL-2 | 29855 | inhibitor, single point
CCO[C@H]1O[C@@H]2OC3(C)CC[C@H]4[C@H](C)CC[C@@H]([C@H]1C)[C@@]24OO3 | MKL-2 | 10593 | inhibitor, partial curve
CCO[C@H]1O[C@@H]2OC3(C)CC[C@H]4[C@H](C)CC[C@@H]([C@H]1C)[C@@]24OO3 | UISO | 1884 | inhibitor, full curve
CCN(CC)CCOc1ccc(C(O)(Cc2ccc(Cl)cc2)c2ccc(C)cc2)cc1 (stereo not drawn) | MKL-1 | 23715 | inhibitor, single point
CCN(CC)CCOc1ccc(C(O)(Cc2ccc(Cl)cc2)c2ccc(C)cc2)cc1 (stereo not drawn) | MCC-26 | 26608 | inhibitor, single point
CCN(CC)CCOc1ccc(C(O)(Cc2ccc(Cl)cc2)c2ccc(C)cc2)cc1 (stereo not drawn) | UISO | 26608 | inhibitor, single point
CCN(CC)CCOc1ccc(C(O)(Cc2ccc(Cl)cc2)c2ccc(C)cc2)cc1 (stereo not drawn) | MCC-13 | 29855 | inhibitor, single point
COc1ccc(-c2ccc3c(N4CCOCC4)nc(N4C[C@@H](C)O[C@@H](C)C4)nc3n2)cc1CO | MCC-13 | 6619 | inhibitor, partial curve
COc1ccc(-c2ccc3c(N4CCOCC4)nc(N4C[C@@H](C)O[C@@H](C)C4)nc3n2)cc1CO | MKL-2 | 2957 | inhibitor, partial curve, poor fit
COc1ccc(-c2ccc3c(N4CCOCC4)nc(N4C[C@@H](C)O[C@@H](C)C4)nc3n2)cc1CO | WaGa | 1482 | inhibitor, partial curve
COc1ccc(-c2ccc3c(N4CCOCC4)nc(N4C[C@@H](C)O[C@@H](C)C4)nc3n2)cc1CO | MCC-26 | 3317 | inhibitor, full curve, poor fit
COc1ccc(-c2ccc3c(N4CCOCC4)nc(N4C[C@@H](C)O[C@@H](C)C4)nc3n2)cc1CO | UISO | 833.3 | inhibitor, full curve
O=C(N/N=C/c1ccc([N+](=O)[O-])o1)c1cc([N+](=O)[O-])cc([N+](=O)[O-])c1O | MKL-2 | 14963 | inhibitor, single point
O=C(N/N=C/c1ccc([N+](=O)[O-])o1)c1cc([N+](=O)[O-])cc([N+](=O)[O-])c1O | WaGa | 26608 | inhibitor, single point
CN1CCCCC1CCN1c2ccccc2Sc2ccc(S(C)=O)cc21 (stereo not drawn) | WaGa | 29855 | inhibitor, single point
CNC(=O)N1N=C(c2ccc(N)cc2)c2cc3c(cc2CC1C)OCO3 (stereo not drawn) | MCC-26 | 9350 | inhibitor, partial curve
CNC(=O)N1N=C(c2ccc(N)cc2)c2cc3c(cc2CC1C)OCO3 (stereo not drawn) | UISO | 9350 | inhibitor, full curve
C[C@@H](O[C@H]1OCCN(Cc2n[nH]c(=O)[nH]2)[C@H]1c1ccc(F)cc1)c1cc(C(F)(F)F)cc(C(F)(F)F)c1 | UISO | 26608 | inhibitor, single point
CCN(CC)CCc1c[nH]c2ccccc12 | UISO | 90433 | inhibitor, single point
COc1cc2c(NC3CCN(C(C)C)CC3)nc(C3CCCCC3)nc2cc1OCCCN1CCCC1 | MCC-26 | 33173 | inhibitor, partial curve, poor fit
COC(=O)Nc1nc2ccc(S(=O)c3ccccc3)cc2[nH]1 (stereo not drawn) | MKL-1 | 530.9 | inhibitor, full curve
COC(=O)Nc1nc2ccc(S(=O)c3ccccc3)cc2[nH]1 (stereo not drawn) | MCC-13 | 18654 | inhibitor, partial curve
COC(=O)Nc1nc2ccc(S(=O)c3ccccc3)cc2[nH]1 (stereo not drawn) | MKL-1 | 33173 | inhibitor, single point
COC(=O)Nc1nc2ccc(S(=O)c3ccccc3)cc2[nH]1 (stereo not drawn) | MCC-13 | 1059 | inhibitor, full curve
C[C@]12CCC(=O)C=C1CC[C@@H]1[C@@H]2CC[C@@]2(C)[C@H]1CC[C@]2(C)O | MKL-2 | 33498 | inhibitor, single point

Some entries from above, unchanged:

* COc1ccc(-c2ccc3c(N4CCOCC4)nc(N4C[C@@H](C)O[C@@H](C)C4)nc3n2)cc1CO [UISO] | fitted potency 833.3 nM (inhibitor, full curve)
* CCN(CC)CCOc1ccc(C(O)(Cc2ccc(Cl)cc2)c2ccc(C)cc2)cc1 (stereo not drawn) [MCC-26] | fitted potency 26608 nM (inhibitor, single point)
* COC(=O)Nc1nc2ccc(S(=O)c3ccccc3)cc2[nH]1 (stereo not drawn) [MCC-13] | fitted potency 18654 nM (inhibitor, partial curve)